Results: patent US7951914B2, “Genetically modified cyclic-nucleotide controlled ion channels” (Forschungszentrum Julich GmbH, priority 2001, dated 2011)
At least one structure is not confirmed: it was looked up by name or label, or the drawing left a doubt.

Tested on: endogenous adenylate cyclase (AC)
Assay: Fluorescence-optical Ca2+ measurement: adenylate cyclase activation with T537M cAMP sensor
Type: cell-based, human
Details: forskolin 0.5-4 μm, FIG. 5D

C=C[C@@]1(C)CC(=O)[C@]2(O)[C@@]3(C)[C@@H](O)CCC(C)(C)[C@@H]3[C@H](O)[C@H](OC(C)=O)[C@@]2(C)O1 [forskolin]
rate and extent of the change in intracellular Ca2+ concentration: depend on the concentration of the AC activator
